Library screen at single concentrations

Data taken from ChEMBL document CHEMBL3988442, “University of Dundee, Small-Polar-MMV Screening Library” (2021).

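Assay of Toxoplasma gondii numbers, read through their beta-galactosidase reporter with a colour substrate. Tested at 50 µM. The record gives no direction; the compounds picked for IC50 retests had high values, so higher reads as fewer parasites. Size under these conditions: about 18,000 compounds, about 170 of them at 50% or above in at least one test.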

Each number is a percent effect as filed. The controls that fix the scale are not given in the record; negative values are as filed. Compounds were drawn at random from those tested, without regard to their results.

Result for Cc1cccnc1NCCNC(=O)Cc1ccsc1 was 13.17%. With CC(C)c1noc(CCC(=O)NCc2cccnc2)n1 the screen gave 6.954%. CS(=O)(=O)C1(CN)CCOCC1 gave -2.415%. CSCC(=O)NCCc1ccc(S(C)(=O)=O)cc1 gave -15.01%. With O=C(NCC(O)c1c(F)cccc1F)c1cc(Br)c[nH]1 (configuration not stated) the screen gave 25.29%. O=C(CN1CCOCC1)NCc1ccc2sccc2c1 gave 7.414%.

With COCc1nc(C2CCN(C(=O)N(C)C)C2)no1 (configuration not stated) the screen gave -3.625%. For COCCN(CC(=O)N(C)C)c1ncccn1 the result was 1.212%. For COc1ccccc1NCC(=O)NCC(C)(O)C(C)C (configuration not stated) the result was 0.7495%. CN(C)S(=O)(=O)CCNC1CCCNC1 (configuration not stated) gave 23.13%. With O=C1CN(C(=O)c2cccc(Cl)c2Cl)CCN1CCO the screen gave -10.19%. For CNC(=O)[C@@H](C)NCC=Cc1ccc(F)cc1 the result was 1.701%.

With COc1ccc(CCC(=O)NC(C)C(=O)N(C)C)cc1 (configuration not stated) the screen gave 1.86%. COCc1ccccc1CNC(=O)NC(C)C read -1.315%. Result for CC(CO)NC(=O)CCC1CCCCC1 (configuration not stated) was 18.16%. CCN1CCCN(C(=O)NCCCn2ccnc2)CC1 read 4.006%. CC1CCN(CCNC(=O)Nc2ncnn2C)CC1 gave 93.89%. With N[C@H]1CCN(C(=O)c2cc(F)cc(C(F)(F)F)c2)C1 the screen gave 5.569%.

For CNC(=O)c1[nH]nc2c1CCC2 the result was -20.1%. NCCc1nc2c(s1)CCCC2 read -4.11%. With COCCN(CCOC)c1ccnc(C#N)c1 the screen gave 0.9564%. Result for Cc1cccnc1CCO was 6.893%. With Brc1csc(CNCCc2nnc[nH]2)c1 the screen gave 13.32%. CN(Cc1cnn(C)c1)C(=O)c1cc(Br)c[nH]1 gave -4.302%.

CC(=O)N1CCc2nn(C)c(=O)n2CC1 read 1.19%. Result for CC(=O)OCc1cc(=O)n2ccsc2n1 was -44.55%. CC(C)[C@H](N)C(=O)N1CCc2cccc(F)c2C1 gave 0.7704%. CN(CC(N)=O)C1Cc2ccccc2C1 gave -5.488%. With CS(=O)(=O)N1CCC(CC(=O)NCc2ccccc2)C1 (configuration not stated) the screen gave -11.04%. With CN(C)C(CNC(=O)c1[nH]ncc1Br)c1ccsc1 (configuration not stated) the screen gave -16.73%.

For COc1cccc(OC(F)(F)F)c1CN the result was 3.332%. OCCC1CCN(Cc2cccnc2)C1 (configuration not stated) read -8.858%. Result for CC(C(N)=O)N1CCN(c2ccccn2)CC1 (configuration not stated) was -8.397%. For O=C(NCCNS(=O)(=O)Cc1ccccc1)C1CCC1 the result was 39.84%. OCCN1CCN(c2ncnc3c2CCC3)CC1 gave 3.966%. For NCc1nnc2ccc(Cl)nn12 the result was 11.91%.

COCCN(C(=O)c1sccc1OC)c1ccncc1 gave -12.98%. CC(C)n1ccc(CC(=O)N2CCCC2)n1 gave -5.349%. For COc1ccc(Cl)cc1NC(=O)Cn1ccnn1 the result was 0.8295%. Nc1nnc(SCC2COc3ccccc3O2)s1 (configuration not stated) gave -12.05%. Result for CN(CCn1cccn1)C(=O)CC1CCCN1C (configuration not stated) was -17.1%. Cc1nc(NC(=O)Oc2ccccc2)no1 read -7.871%.